# The other results are listed elsewhere or left out.
# B1: CcfD (Bacteroides fragilis), Q5L9G4 (protein)
# chain: MKKQNSIYTLLIALLCFVSSCDYLGVSDQLAGGLQNTEQVFDNVSYTKRWYANVFAGIPDYSGINSVNVGAFKNPWTGMCDELVVGYGNSSKYNNSDRNAANMGFHRYGDCYKYIRQANIFLQKAHPIMTTGTQGDQLLEDELTQMKANVRFMRAFYHYLLFEQYGPIILVKDKIYNATEDQDVPRNTVDEVIEYIDSELTAVASELTQEPIFEDKDYRAWPTKGVALAVRAKLWLYAASPLLNGGYREALSVTNPDGTRLFPDYDAGKWEKALAACKDFIDYAEAGRYELYKEYKDDNGAVIDPDKSVYNLFQKYTHEIIWATANNDWGGMNGDAFDRRIAPRCEKNGLGSTGVTQELVDAFYMKDGFPVSATAYLPQSTLYQEEGYGTYKDQNDNFSKKYTNVTVSNRYLNREPRFYNTVFFNGRQWPVSCNQVLFYNGGNSGVQEGQATLTGYMLFKRFNRSVSLTNPGVASQFRPSIIFRLADFYLMYAEAANEVNPNDARVLKYLNLVRERAGLPDIETLNPAIRGNQELQRAAIQRERQIELATEGQRYFDVRRWMIADKNGEGRQNGYVHGMNVRGESNDKEDFNRIVEASQIVFNRKMYLYPMPDSEMRKTKNLVQNPGW
# Key:
# Assay in all cases: glycan array binding signal (z-score within array); higher = stronger binding
# Conditions in all cases: glycan notation: IUPAC condensed, linker removed
# [1] = biological target: Gal3S(b1-3)[Fuc(a1-4)]GlcNAc
# Summary of the method: (§1)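 Negative Z-scores can be read as non-binding. The Z-score is calculated within each array and then averaged across arrays of one protein sequence at different concentrations or buffers and across linkers. Arrays, 3228 in all, were curated from the Consortium for Functional Glycomics database and kept only where the protein sequence was available.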
# Gal3S(b1-4)Glc = biological target: Gal3S(b1-4)Glc
# Summary of the method: as §1
# Gal3S(b1-4)Glc6S = biological target: Gal3S(b1-4)Glc6S
# Summary of the method: as §1
# Gal3S(b1-4)GlcNAc = biological target: Gal3S(b1-4)GlcNAc
# Summary of the method: as §1
# [2] = biological target: Gal3S(b1-4)[Fuc(a1-3)]Glc6S
# Summary of the method: as §1
# [3] = biological target: Gal3S(b1-4)[Fuc(a1-3)]GlcNAc
# Summary of the method: as §1
# [4] = biological target: Gal3S(b1-4)[Fuc(a1-3)]GlcNAc6S
# Summary of the method: as §1
# Gal3S4S(b1-4)GlcNAc = biological target: Gal3S4S(b1-4)GlcNAc
# Summary of the method: as §1
# Gal3S6S(b1-4)GlcNAc = biological target: Gal3S6S(b1-4)GlcNAc
# Summary of the method: as §1
# Gal3S6S(b1-4)GlcNAc6S = biological target: Gal3S6S(b1-4)GlcNAc6S
# Summary of the method: as §1
# Gal4S(b1-4)GlcNAc = biological target: Gal4S(b1-4)GlcNAc
# Summary of the method: as §1
# Gal4S6S(b1-4)GlcNAc = biological target: Gal4S6S(b1-4)GlcNAc
# Summary of the method: as §1
# Gal6P(b1-4)GlcNAc = biological target: Gal6P(b1-4)GlcNAc
# Summary of the method: as §1
# Gal6S(b1-3)GlcNAc = biological target: Gal6S(b1-3)GlcNAc
# Summary of the method: as §1
# Gal6S(b1-3)GlcNAc6S = biological target: Gal6S(b1-3)GlcNAc6S
# Summary of the method: as §1
# Gal6S(b1-4)Glc = biological target: Gal6S(b1-4)Glc
# Summary of the method: as §1
# Gal6S(b1-4)Glc6S = biological target: Gal6S(b1-4)Glc6S
# Summary of the method: as §1
# Gal6S(b1-4)GlcNAc = biological target: Gal6S(b1-4)GlcNAc
# Summary of the method: as §1
# Gal6S(b1-4)GlcNAc6S = biological target: Gal6S(b1-4)GlcNAc6S
# Summary of the method: as §1
# GalNAc(a1-3)Gal = biological target: GalNAc(a1-3)Gal
# Summary of the method: as §1
# GalNAc(a1-3)GalNAc = biological target: GalNAc(a1-3)GalNAc
# Summary of the method: as §1
# [5] = biological target: GalNAc(a1-3)GalNAc(b1-3)Gal(a1-4)Gal(b1-4)Glc
# Summary of the method: as §1
# [6] = biological target: GalNAc(a1-3)GalNAc(b1-3)Gal(a1-4)Gal(b1-4)GlcNAc
# Summary of the method: as §1
# GalNAc(b1-3)Gal = biological target: GalNAc(b1-3)Gal
# Summary of the method: as §1
# [7] = biological target: GalNAc(b1-3)Gal(a1-4)Gal(b1-4)GlcNAc
# Summary of the method: as §1
# [8] = biological target: GalNAc(b1-3)Gal(a1-4)Gal(b1-4)GlcNAc(b1-3)Gal(b1-4)Glc
# Summary of the method: as §1
# [9] = biological target: GalNAc(b1-3)Gal(a1-6)Gal(b1-4)Glc
# Summary of the method: as §1
# GalNAc(b1-3)GalNAc = biological target: GalNAc(b1-3)GalNAc
# Summary of the method: as §1
# GalNAc(b1-3)GlcNAc = biological target: GalNAc(b1-3)GlcNAc
# Summary of the method: as §1
# GalNAc(b1-4)Gal(b1-4)Glc = biological target: GalNAc(b1-4)Gal(b1-4)Glc
# Summary of the method: as §1
# GalNAc(b1-4)GlcNAc = biological target: GalNAc(b1-4)GlcNAc
# Summary of the method: as §1
# [10] = biological target: GalNAc(b1-4)GlcNAc(b1-2)Man
# Summary of the method: as §1
# [11] = biological target: GalNAc(b1-4)GlcNAc(b1-2)Man(a1-3)[GalNAc(b1-4)GlcNAc(b1-2)Man(a1-6)]Man(b1-4)GlcNAc(b1-4)GlcNAc
# Summary of the method: as §1
# [12] = biological target: GalNAc(b1-4)GlcNAc(b1-3)GalNAc(b1-4)GlcNAc
# Summary of the method: as §1
# GalNAc(b1-4)GlcNAc6S = biological target: GalNAc(b1-4)GlcNAc6S
# Summary of the method: as §1
# GalNAc(b1-6)GalNAc = biological target: GalNAc(b1-6)GalNAc
# Summary of the method: as §1
# GalNAc3S(b1-4)GlcNAc = biological target: GalNAc3S(b1-4)GlcNAc
# Summary of the method: as §1
# GalNAc3S(b1-4)GlcNAc3S = biological target: GalNAc3S(b1-4)GlcNAc3S
# Summary of the method: as §1
# [13] = biological target: GalNAc3S(b1-4)[Fuc(a1-3)]GlcNAc
# Summary of the method: as §1
# GalNAc4S6S(b1-4)GlcNAc = biological target: GalNAc4S6S(b1-4)GlcNAc
# Summary of the method: as §1
# GalNAc6S(b1-4)GlcNAc = biological target: GalNAc6S(b1-4)GlcNAc
# Summary of the method: as §1
# Glc(a1-4)Glc = biological target: Glc(a1-4)Glc
# Summary of the method: as §1
# [14] = biological target: Glc(a1-4)Glc(a1-4)Glc(a1-4)Glc
# Summary of the method: as §1
# Glc(a1-6)Glc(a1-6)Glc = biological target: Glc(a1-6)Glc(a1-6)Glc
# Summary of the method: as §1
# [15] = biological target: Glc(a1-6)Glc(a1-6)Glc(a1-6)Glc
# Summary of the method: as §1
# Glc(b1-4)Glc = biological target: Glc(b1-4)Glc
# Summary of the method: as §1
# Glc(b1-6)Glc = biological target: Glc(b1-6)Glc
# Summary of the method: as §1
# GlcA(b1-3)Gal = biological target: GlcA(b1-3)Gal
# Summary of the method: as §1
# GlcA(b1-3)GlcNAc = biological target: GlcA(b1-3)GlcNAc
# Summary of the method: as §1
# GlcA(b1-6)Gal = biological target: GlcA(b1-6)Gal
# Summary of the method: as §1
# [16] = biological target: GlcA3S(b1-3)Gal(b1-4)GlcNAc(b1-2)Man
# Summary of the method: as §1
# [17] = biological target: GlcA3S(b1-3)Gal(b1-4)GlcNAc(b1-3)Gal(b1-4)Glc
# Summary of the method: as §1
# [18] = biological target: GlcNAc(a1-3)Gal(b1-4)GlcNAc
# Summary of the method: as §1
# [19] = biological target: GlcNAc(a1-4)Gal(b1-3)GlcNAc
# Summary of the method: as §1
# [20] = biological target: GlcNAc(a1-4)Gal(b1-4)GalNAc
# Summary of the method: as §1
# [21] = biological target: GlcNAc(a1-4)Gal(b1-4)GlcNAc
# Summary of the method: as §1
# [22] = biological target: GlcNAc(a1-4)Gal(b1-4)GlcNAc(b1-3)Gal(b1-4)Glc
# Summary of the method: as §1
# [23] = biological target: GlcNAc(a1-4)Gal(b1-4)GlcNAc(b1-3)Gal(b1-4)GlcNAc
# Summary of the method: as §1
# [24] = biological target: GlcNAc(a1-4)Gal(b1-4)GlcNAc(b1-3)Gal(b1-4)GlcNAc(b1-3)Gal(b1-4)GlcNAc
# Summary of the method: as §1
# [25] = biological target: GlcNAc(a1-4)Gal(b1-4)GlcNAc(b1-3)Gal(b1-4)[Fuc(a1-3)]GlcNAc(b1-3)Gal(b1-4)[Fuc(a1-3)]GlcNAc
# Summary of the method: as §1
binder,measurement,setting,value
B1,glycan array binding signal (z-score),[1],1.03
same,glycan array binding signal (z-score),Gal3S(b1-4)Glc,0.864
same,glycan array binding signal (z-score),Gal3S(b1-4)Glc6S,0.322
same,glycan array binding signal (z-score),Gal3S(b1-4)GlcNAc,0.21
same,glycan array binding signal (z-score),[2],0.213
same,glycan array binding signal (z-score),[3],0.135
same,glycan array binding signal (z-score),[4],1.44
same,glycan array binding signal (z-score),Gal3S4S(b1-4)GlcNAc,-0.542
same,glycan array binding signal (z-score),Gal3S6S(b1-4)GlcNAc,1.15
same,glycan array binding signal (z-score),Gal3S6S(b1-4)GlcNAc6S,-0.069
same,glycan array binding signal (z-score),Gal4S(b1-4)GlcNAc,-0.87
same,glycan array binding signal (z-score),Gal4S6S(b1-4)GlcNAc,-0.076
same,glycan array binding signal (z-score),Gal6P(b1-4)GlcNAc,-0.923
same,glycan array binding signal (z-score),Gal6S(b1-3)GlcNAc,1.26
same,glycan array binding signal (z-score),Gal6S(b1-3)GlcNAc6S,0.082
same,glycan array binding signal (z-score),Gal6S(b1-4)Glc,-0.01
same,glycan array binding signal (z-score),Gal6S(b1-4)Glc6S,-0.319
same,glycan array binding signal (z-score),Gal6S(b1-4)GlcNAc,-0.148
same,glycan array binding signal (z-score),Gal6S(b1-4)GlcNAc6S,1.06
same,glycan array binding signal (z-score),GalNAc(a1-3)Gal,-0.049
same,glycan array binding signal (z-score),GalNAc(a1-3)GalNAc,-0.319
same,glycan array binding signal (z-score),[5],0.266
same,glycan array binding signal (z-score),[6],1.74
same,glycan array binding signal (z-score),GalNAc(b1-3)Gal,-0.64
same,glycan array binding signal (z-score),[7],1.46
same,glycan array binding signal (z-score),[8],-0.135
same,glycan array binding signal (z-score),[9],-0.64
same,glycan array binding signal (z-score),GalNAc(b1-3)GalNAc,-0.404
same,glycan array binding signal (z-score),GalNAc(b1-3)GlcNAc,0.502
same,glycan array binding signal (z-score),GalNAc(b1-4)Gal(b1-4)Glc,-0.384
same,glycan array binding signal (z-score),GalNAc(b1-4)GlcNAc,0.824
same,glycan array binding signal (z-score),[10],-0.805
same,glycan array binding signal (z-score),[11],-0.942
same,glycan array binding signal (z-score),[12],0.437
same,glycan array binding signal (z-score),GalNAc(b1-4)GlcNAc6S,0.299
same,glycan array binding signal (z-score),GalNAc(b1-6)GalNAc,0.364
same,glycan array binding signal (z-score),GalNAc3S(b1-4)GlcNAc,-0.292
same,glycan array binding signal (z-score),GalNAc3S(b1-4)GlcNAc3S,-0.562
same,glycan array binding signal (z-score),[13],0.424
same,glycan array binding signal (z-score),GalNAc4S6S(b1-4)GlcNAc,1.77
same,glycan array binding signal (z-score),GalNAc6S(b1-4)GlcNAc,1.12
same,glycan array binding signal (z-score),Glc(a1-4)Glc,0.131
same,glycan array binding signal (z-score),[14],1.18
same,glycan array binding signal (z-score),Glc(a1-6)Glc(a1-6)Glc,-0.502
same,glycan array binding signal (z-score),[15],0.095
same,glycan array binding signal (z-score),Glc(b1-4)Glc,1.59
same,glycan array binding signal (z-score),Glc(b1-6)Glc,-0.266
same,glycan array binding signal (z-score),GlcA(b1-3)Gal,-0.555
same,glycan array binding signal (z-score),GlcA(b1-3)GlcNAc,-0.233
same,glycan array binding signal (z-score),GlcA(b1-6)Gal,-0.456
same,glycan array binding signal (z-score),[16],0.312
same,glycan array binding signal (z-score),[17],0.923
same,glycan array binding signal (z-score),[18],-0.864
same,glycan array binding signal (z-score),[19],0.496
same,glycan array binding signal (z-score),[20],-0.588
same,glycan array binding signal (z-score),[21],-0.365
same,glycan array binding signal (z-score),[22],-0.509
same,glycan array binding signal (z-score),[23],-0.634
same,glycan array binding signal (z-score),[24],-0.896
same,glycan array binding signal (z-score),[25],-0.969

# Reprinted at random: 2 records from the list, in no set order.
binder,measurement,setting,value
B1,glycan array binding signal (z-score),GalNAc(a1-3)GalNAc,-0.319
same,glycan array binding signal (z-score),Gal6S(b1-3)GlcNAc,1.26

# Part of the list above, with tabs:
binder	measurement	setting	value
B1	glycan array binding signal (z-score)	[9]	-0.64
same	glycan array binding signal (z-score)	[11]	-0.942

# From the supplement of paper PMC8728848
